Results reported in PubChem BioAssay AID1347075 (National Center for Advancing Translational Sciences (NCATS), 2019).
Screen size: about 400,000 compounds; about 5,500 (1.4%) were called active. Inconclusive results, whose numbers are uncertain, are shown with a selection of clear calls. Calls follow the shape of the dose curve; as a rule, active = well fitted cell-killing curve with a large enough effect; inconclusive = small, poorly fitted or top-dose-only effect, or effect the other way; inactive = flat fitted curve, though single readings scatter. Where the call is inconclusive, the potency comes from a doubtful curve fit.

Test: qHTS assay for MDR1-selective chemotherapeutics: Primary screen using the parental adenocarcinoma cell KB-3-1; also: nearly all actives have a fitted effect of over 60% in size
Conditions: KB-3-1 viability, CellTiter-Glo ATP luminescence, 72 h; activity change, negative = cytotoxic: at 46.1 µM (top of the series)
In short: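 KB-3-1 parental drug-naive adenocarcinoma cells in DMEM/10% FBS, incubated 72 h at 37 C with pin-transferred compounds across a concentration series. Viability by CellTiter-Glo luminescence; concentration-response curves fitted after normalization.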
% is scaled to controls: 0 for no effect and ±100 for the full control effect; potency is read from the fitted curve at half-maximal effect.

Structure (SMILES)	Potency	activity change, negative = cytotoxic
CCN1CCN(c2ncc3c(n2)CCN(Cc2ccccc2C)C3)CC1	inconclusive: 6.51 µM [cytotoxic, partial curve]	–
Nc1ccc2nn(-c3cc([N+](=O)[O-])ccc3O)nc2c1	–	inactive: -1.78%
O=C(Cn1nnc(-c2ccccc2)n1)N/N=C/c1cccc([N+](=O)[O-])c1O	inconclusive: 29.1 µM [cytotoxic, single point]	–
COc1cccc(NC(=O)CN(C)C(=O)c2cccc(S(=O)(=O)N3CCN(c4ccc(F)cc4)CC3)c2)c1	inconclusive: 20.6 µM [cytotoxic, single point]	–
COc1ccc(CCN(Cc2nc(-c3ccccc3)no2)Cc2nc(-c3ccccc3)no2)cc1OC	inconclusive: 0.0046 µM [rising, full curve]	–
O=C(c1ccc(N2CCNCC2)cc1)c1cccnc1	inconclusive: 23.1 µM [cytotoxic, partial curve]	–
Cc1ccc(CS(=O)(=O)c2ncc(Cl)c(C(=O)Nc3nnc(C(C)C)s3)n2)cc1	inconclusive: 25.9 µM [cytotoxic, single point]	–
CC(C)CCNC(=O)C1CCN(C(=O)c2cc3sccc3n2Cc2ccc(Cl)cc2)CC1	–	inactive: -0.094%
COc1cc(C(=O)NNC(=O)c2ccc(NC(C)=O)cc2)cc(OC)c1OC	–	inactive: -13.7%
COc1ccc(-c2nc(CS(=O)CC(=O)NCCc3ccc(Cl)cc3)c(C)o2)cc1OC (stereo unspecified)	–	inactive: 1.21%
Cc1ccc(Cc2c(-c3ccco3)nc3ccc(C)cn23)cc1	–	inactive: -0.203%
COc1ccc(N(C)C(=O)CCC(=O)Nc2ccc3nc(N4CCOCC4)cc(C)c3c2)c(OC)c1	inconclusive: 16.4 µM [rising, single point]	–
CC(C)(C)c1cc(NC(=O)c2ccc(OC3CCCC3)cc2)no1	inconclusive: 29.1 µM [cytotoxic, single point]	–
CCOC(=O)c1ccc(-c2ccc3[nH]c4ccccc4c(=O)c3c2)cc1F	–	inconclusive: 39.2%
COC(=O)c1ccc(NC(=O)c2cc(-c3ccccn3)nc3ccccc23)cc1	–	inactive: 1.92%
CCN(CC)S(=O)(=O)c1ccc2[nH]cc(C(=O)NCCC3=CCCCC3)c(=O)c2c1	inconclusive: 29.1 µM [cytotoxic, single point]	–
O=C(CS(=O)(=O)c1ccccc1)NCc1ccc(Cl)cc1	–	inactive: -8.99%
Fc1ccccc1NC(=S)Nc1cccc2cnccc12	inconclusive: 23.1 µM [cytotoxic, single point]	–
Cn1ncc(Cl)c1C(=O)N1CCN(c2cccc(Cl)c2)CC1	inconclusive: 25.9 µM [cytotoxic, single point]	–
Cc1cc(N2CCCC2)ccc1/C=N/n1cnnc1	inconclusive: 29.1 µM [cytotoxic, single point]	–
Oc1c(C(c2ccc(F)cc2)N2CCN(Cc3ccccc3)CC2)sc2nc(-c3ccco3)nn12 (stereo unspecified)	–	inactive: 7.25%
N#Cc1cc(C(=O)c2cc(Br)ccc2O)cn(C2CCCCC2)c1=O	inconclusive: 11.6 µM [cytotoxic, partial curve]	–
C[C@@H]1[C@H](c2ccccc2)OCCS(=O)(=O)N1Cc1ccc(Cl)cc1	active: 16.4 µM	–

Structure (SMILES)	Potency	activity change, negative = cytotoxic
Nc1nsc2ccccc12	inconclusive: 11.6 µM [cytotoxic, partial curve, poor fit]	–
CCOC(=O)N1CCN(C(=O)c2oc3ccc(S(=O)(=O)N4CCCCC4)cc3c2C)CC1	inconclusive: 29.1 µM [cytotoxic, single point]	–
COc1ccc(CC(CN)c2ccccc2)cc1 (stereo unspecified)	inconclusive: 14.6 µM [cytotoxic, partial curve, poor fit]	–
Cc1cccc(NC(=O)c2nc(-c3ccccc3)n(-c3ccccc3)n2)c1C	inconclusive: 20.6 µM [cytotoxic, partial curve, poor fit]	–
COC(=O)c1sccc1S(=O)(=O)N(CC(=O)Nc1cccc(C)c1C)c1ccc(C)c(C)c1	inconclusive: 16.4 µM [cytotoxic, single point]	–
Cc1ccn2c(NC3CCCC3)c(-c3ccncc3)nc2c1	–	inactive: 0.369%
CC(=O)Nc1cccc(-c2ccnc3c2CC(C)(C(=O)Nc2ccc(Cl)cc2)O3)c1 (stereo unspecified)	active: 2.31 µM	–
COc1ccc(-c2cc(NC(C)=O)c3ncc(-c4ccc(OC)c(OC)c4)n3c2)cc1OC	inconclusive: 29.1 µM [cytotoxic, single point]	–
C#CCN1C(=O)C(O)(c2c(C)[nH]c3ccccc23)c2ccccc21 (stereo unspecified)	inconclusive: 29.1 µM [cytotoxic, single point]	–
CN1/C(=C/c2cccc[n+]2C)Sc2ccccc21	active: 1.46 µM	–
COc1ccc(Cl)cc1N1CCN(CCNC(=O)Nc2ccccc2C)CC1	inconclusive: 20.6 µM [cytotoxic, single point]	–
COc1ccccc1NC(=S)NC1CC2CCC1C2 (stereo unspecified)	–	inconclusive: -11.5%
Cc1ccsc1C(=O)N1CCN(c2ncc(C(F)(F)F)cc2Cl)CC1	inconclusive: 16.4 µM [cytotoxic, single point]	–
COC(=O)c1cc(C(=O)c2ccc(Cl)cc2Cl)cn1C	inconclusive: 18.4 µM [cytotoxic, single point]	–
Cc1ccccc1NC(=O)c1ccc(OCc2c(C)noc2C)cc1	inconclusive: 29.1 µM [cytotoxic, single point]	–
NS(=O)(=O)c1ccc(-n2nncc2-c2ccco2)cc1	–	inactive: 3.04%
CC(C)OCC(O)CS(=O)Cc1ccccc1 (stereo unspecified)	–	inactive: -6.85%
COc1cccc(C(NC(C)=O)c2nc(-c3ccc4ccccc4c3)cs2)c1 (stereo unspecified)	inconclusive: 29.1 µM [cytotoxic, single point]	–
CCOc1ccc(NC(=S)N2CCN(CCN3C(=O)c4cccc5cccc(c45)C3=O)CC2)cc1	–	inactive: -0.978%
CNC(=O)NNC(=O)c1nc(-c2ccccc2)c(C)o1	–	inactive: -5.35%
Clc1ccccc1OCc1nnc(-c2ccccc2Br)o1	–	inactive: -1.54%
Cc1cccc(N2CCN(C(=O)c3cc(=O)[nH]c4ccccc34)CC2)c1C	inconclusive: 3.66 µM [cytotoxic, full curve, poor fit]	–
CCCCCCCN(c1ccccc1)[C@@H]1C[C@H]2CCCC(=O)N3CC[C@@H](C1)[C@@H]23	inconclusive: 29.1 µM [cytotoxic, single point]	–
